Results published in PubChem BioAssay AID488835 (Broad Institute, 2010).
In all, about 1,400 compounds went through this assay and about 140 (10%) were called active.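 How the source made its calls: active means Half-maximal inhibitory dose from the fit at or below ten times the top valid tested dose; inconclusive means Invalid fit, or flat curve showing 30 to 70% inhibition; inactive means the rest.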 The entries are a selection whose mix differs from that of the whole data set. Results with a measured potency or affinity are listed apart.

Sequences of proteins named here, by UniProt entry; tags and fusion partners are left off. Residues count along the entry.
UniProt Q9H3R0, 1-420 limits assumed: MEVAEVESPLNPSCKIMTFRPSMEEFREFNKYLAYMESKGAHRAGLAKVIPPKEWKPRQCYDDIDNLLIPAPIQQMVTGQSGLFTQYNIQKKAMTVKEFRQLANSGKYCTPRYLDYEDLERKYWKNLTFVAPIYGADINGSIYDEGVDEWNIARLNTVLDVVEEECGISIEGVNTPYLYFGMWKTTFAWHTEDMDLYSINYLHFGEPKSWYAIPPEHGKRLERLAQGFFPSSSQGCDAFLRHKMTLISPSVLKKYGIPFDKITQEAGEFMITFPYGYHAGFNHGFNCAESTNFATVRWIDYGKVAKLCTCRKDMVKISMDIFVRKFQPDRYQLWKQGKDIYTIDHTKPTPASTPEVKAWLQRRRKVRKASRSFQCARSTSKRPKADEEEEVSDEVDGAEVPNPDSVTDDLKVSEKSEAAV

target: Lysine-specific demethylase 4C (Homo sapiens) (UniProt Q9H3R0); assay: inhibition of JMJD2C H3K9me3 demethylation – biochemical, DELFIA europium, cherry-picked samples, dose response (AID 488835); details: GST-JMJD2C(1-420); at 6 µM (top of the series) unless noted;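 further: signal is the H3K9me2 demethylation product detected by a dimethyl-specific antibody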

Activity change, negative = inhibition, inactive:
CC(C)c1ccc(NC2CCCN(C(=O)CCN3CCCCC3=O)C2)cc1 (stereo not given) 16.1%, CC1(C)CC(=O)C2=C(C1)OC(N)=C(C#N)C2C#Cc1ccccc1 (stereo not given) 8.11%, COc1ccc(CCNC(=O)c2cccc(NS(=O)(=O)c3ccccc3F)c2)cc1OC -3.93%, COc1ccc(C(C(C(=O)c2ccco2)N2CCOCC2)N2CCOCC2)cc1 (stereo not given) 5.71%, COc1ccc(/C=C(/C(=O)NCc2ccccc2)c2ccccc2)cc1 5.38%, CCOC(=O)c1[nH]c(CSc2nnnn2-c2ccccc2C)c(C(=O)OCC)c1C 1.98%, O=C(NCC1CCCO1)Nc1ccccc1 (stereo not given) -2.2%, O=C(CC1C[C@H](C(=O)N2CCCCC2)[C@@]2(CCc3ccccc3)c3[nH]c4ccccc4c3CCN2C1=O)NCCC1=CCCCC1 (stereo not given in full) -4.94%, Nc1ncnc2c1ncn2[C@@H]1O[C@H](CNCC#Cc2ccccc2)[C@@H](O)[C@H]1O 2.42%, O=C(O)CSc1nnc(COc2cccc3cccnc23)n1-c1cccc(C(F)(F)F)c1 -0.453%, Cc1nnc(N2C(=O)C(=O)/C(=C(/O)c3ccc4c(c3)CC(C)O4)C2c2ccccc2F)s1 (stereo not given) 8.44%, CCN(C[C@H]1N[C@@](C)(C(=O)OC)[C@H]2C(=O)N(C)C(=O)[C@@H]12)C(=O)Nc1ccc(C)cc1 0.134%, O=C1C=C(NCc2ccc3c(c2)OCO3)CC(c2ccccc2)C1 (stereo not given) -0.693%, C=CCNCCOc1cccc(Br)c1 2.08%, CC(C)CCSc1cc(NCCO)c([N+](=O)[O-])c2nonc12 1.05%, Cc1noc(C)c1C(=O)Nc1ccc2ccccc2c1 3.03%, Cc1ccc(S(=O)(=O)N2CCOCC2)cc1C(=O)NNC(=O)c1ccoc1C 6.61%, Cc1cc(Cl)c(S(=O)(=O)Nc2ccc3c(c2)OCCO3)cc1OCC(N)=O -0.843%, C[C@H](CO)N1C[C@H](C)[C@@H](CN(C)C(=O)Nc2ccc3c(c2)OCO3)Oc2ccc(NC(=O)Cn3cnnn3)cc2C1=O 2.66%, COc1cccc(/C=C/C(=O)OCC(=O)NCc2ccc(Cl)cc2)c1 0.388%, COc1ccc(NC(=O)Nc2ccc3c(c2)C(=O)N([C@H](C)CO)C[C@H](C)[C@@H](CN(C)S(=O)(=O)c2cccs2)O3)cc1 8.17%, COc1ccc(/C=N/NC(=O)c2cc(C)on2)c2ccccc12 -1.79%, COc1cc2c(cc1OC)C1=C(C#N)COCN1CC2 0.413%, CCCC(=O)Nc1nc2c(c(=O)[nH]1)CCCC2 -0.233%, O=C(NC1(O)C(=O)c2ccccc2C1=O)c1c(Cl)cccc1Cl 6.07%, CCN(CC)C(=O)N1CCc2ccccc2C1CN1C(=O)c2ccccc2C1=O (stereo not given) -0.118%, CCCCCCc1cc2cc(-c3nnc(-c4ccccc4)o3)c(=O)oc2cc1O -1.96%, CCOC(=O)c1nc(C)n(-c2cc(Cl)ccc2Cl)n1 6.96%, O=C(NCC(=O)N1CCCCC1)c1sc2ccccc2c1Cl 0.7%, COC(=O)C1=C(C)N(CCc2cc(OC)c(OC)c(OC)c2)C(=O)N[C@H]1c1cccs1 11.2%, CCN(CCNS(=O)(=O)c1ccc2c(c1)oc(=O)n2C)c1ccccc1 1.56%, COc1cccc(-n2nnc3c(=O)n(Cc4ccccc4F)cnc32)c1 4.46%, CN(C)S(=O)(=O)c1ccc(NC(=S)NC(=O)C2CCC2)cc1 10.1%, CN(C)S(=O)(=O)c1ccc(N2CCCC2)c(C(=O)Nc2nc3ccc(F)cc3s2)c1 0.98%, N=c1n(CCCOc2ccccc2Cl)c2ccccc2n1CC(N)=O 9.23%, C[C@H](CO)N1C[C@H](C)[C@@H](CN(C)S(=O)(=O)c2cn(C)cn2)Oc2ccc(NC(=O)C3CC3)cc2C1=O 5.52%, CCCCC(=O)NC(NC(=S)N1CCOCC1)C(Cl)(Cl)Cl (stereo not given) 2.74%, C[C@H](CO)N1C[C@H](C)[C@@H](CN(C)S(=O)(=O)c2ccc(F)cc2)Oc2ccc(NS(=O)(=O)c3cccs3)cc2C1=O -0.685%, CC1CN(C)C(C)CC1NCc1ccc2c(c1)OCO2 (stereo not given) -4.65%, CN(C)c1cccc(C(=O)Nc2cc(C(F)(F)F)ccc2-n2cnc3ccccc32)c1 8.67%, CC(=O)NS(=O)(=O)c1ccc(NC(=O)CSc2ccc(Cl)cc2)cc1 -0.152%, O=C(COC(=O)C1(c2ccc(Cl)cc2)CCCC1)NC1CCS(=O)(=O)C1 (stereo not given) 6.75%, Cc1cccc2sc(NNC(=O)c3cc(=O)c4ccccc4o3)nc12 -7.12%, CC(=O)N1CCN(c2ccc([N+](=O)[O-])c(-n3nc(C)cc3C)c2)CC1 3.15%, Cn1c(=O)[nH]c(=O)c2[nH]c(NCCCN3CCOCC3)nc21 -6.83%, Cc1cccc(Oc2nc(CN3CCOCC3)nc3sc4c(c23)CCCC4)c1 2.57%, COc1ccc(CN2CCCCC2C)c(C)c1C (stereo not given) 2.27%, COc1ccccc1C(c1nnnn1Cc1ccccc1)N1CCN(C2CCCC2)CC1 (stereo not given) -4.86%, CCOc1cccc(SCc2noc(C(=O)NC(C)C)c2C(=O)O)c1 2.92%, O=c1oc2ccccc2c2c1C(c1ccc(Cl)cc1)Nc1ccc3ccccc3c1-2 (stereo not given) -0.0613%, O=C(Nc1ccccc1)N(CCc1nc2ccccc2[nH]1)C1CCCC1 -1.41%, CC1SC(=NC(=O)C(C)N2C(=O)c3ccccc3C2=O)NC1=O (stereo not given) 1.54%, CC(C)(C)OC(=O)CNC(=O)c1[nH]cnc1C(=O)N[C@@H](CCCCN)C(=O)OC(C)(C)C 1.96%, COc1cc(C#N)c(N=C(SCC#N)N2CCOCC2)cc1OC 0.963%, C#CCOCCOCCOCCNc1nc(N2CCN(C(=O)[C@H](CCC(=O)O)n3cc([C@@H](N)[C@H](C)CC)nn3)CC2)nc(N2CCN(C(=O)[C@H](CCCCN)n3cc([C@@H](N)CC(N)=O)nn3)CC2)n1 -0.561%, CCN(C[C@H]1N[C@@](C)(C(=O)OC)[C@H]2C(=O)N(Cc3ccccc3)C(=O)[C@@H]12)C(=O)Nc1ccc(Cl)cc1 2.49%, Cc1cccc(OCc2nnc(SCC(=O)Nc3cccc(C(=O)N4CCOCC4)c3)o2)c1C 5.38%, COC(=O)c1cc(C#N)c(OC)nc1C 3.36%, O=C(NCC(c1ccco1)N1CCN(c2ccc(F)cc2)CC1)OCc1ccccc1 (stereo not given) 6.88%, Cc1ccc(-n2nnc3c(SCC(=O)NCC4CCCO4)ncnc32)cc1 (stereo not given) 8.21%, Cc1noc(C)c1NC(=O)N(C)C[C@H]1Oc2ccc(NC(=O)C3CCCCC3)cc2C(=O)N([C@H](C)CO)C[C@@H]1C 3.94%, CC(C)(C)C1CCc2[nH]c3ccccc3c(=O)c2C1 (stereo not given) -8.54%, O=S(=O)(Nc1ncnc2sc3c(c12)CCC3)c1ccc(Cl)s1 -2.05%, O=C(Cn1cnc2ccccc2c1=O)Nc1ccc2c(c1)CCC2 1.54%, COc1ccc(N(Cc2cc3cccc(C)c3[nH]c2=O)S(C)(=O)=O)cc1 0.542%, c1csc(-c2nc3nc4ccccc4nc3n2Cc2ccc3c(c2)OCO3)c1 6.94%, Cc1ccc(NC(=O)CSc2cccc[n+]2[O-])c([N+](=O)[O-])c1 2.02%, Cc1nnsc1C(=O)NNS(=O)(=O)c1ccccc1 10.9%, CCN(C(=O)c1sc(N)c(C#N)c1C)C1CCCCC1 4.45%, Cc1noc(C)c1NC(=O)Nc1ccc2c(c1)C(=O)N([C@H](C)CO)C[C@H](C)[C@@H](CN(C)C(=O)NC1CCCCC1)O2 1.97%
